Measurements taken from paper PMC7819943, “Rice protein-binding microarrays: a tool to detect cis-acting elements near promoter regions in rice”.
The list shows a part of the results.

Protein sequences, listed by entry. Tags and fused reporters are not part of them.
UniProt Q0JBA9, entry or part of it: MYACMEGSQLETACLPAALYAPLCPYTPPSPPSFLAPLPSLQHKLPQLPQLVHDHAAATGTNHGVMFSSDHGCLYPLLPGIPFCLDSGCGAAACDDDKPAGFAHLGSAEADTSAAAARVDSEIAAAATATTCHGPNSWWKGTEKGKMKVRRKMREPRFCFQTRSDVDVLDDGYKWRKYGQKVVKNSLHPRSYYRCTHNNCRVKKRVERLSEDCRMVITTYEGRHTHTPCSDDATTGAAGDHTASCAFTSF

These sequences were tested against OsWRKY34 (Oryza sativa, UniProt Q0JBA9 1-250) (assay: protein-binding microarray (RPBM); PBS, 2% BSA, 51.3 ng/ul salmon testes DNA, 50 uM zinc acetate, 200 nM TF, 25 C, 1 h; high values mean tight binding). Details: protein: recombinant; tags: N-terminal polyhistidine and DsRed monomer fusion (pET32a); label: CyDye5-dUTP incorporated in the synthesized complementary strand; 3' TTTTT single-stranded linker to array surface; dsDNA, one strand shown.
How it was run: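 The binding signal is fluorescence intensity per array feature (arbitrary units). Readings came from an Axon 4000B scanner after a washed, 2% BSA-blocked, double-stranded custom Agilent array had been incubated for 1 h at 25 °C with 200 nM protein and 50 µM zinc acetate. The protein was a Ni–NTA-purified transcription factor fused N-terminally to polyhistidine and DsRed, expressed in E. coli BL21-CodonPlus.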

Row | Sequence | binding signal
1 | GTATTTATTTTGGCGGAGTGGTTATTTATCTTCCATTTCACGGAGTCACCTAGTGCAG | 9430 fluorescence intensity (a.u.)
2 | GAGACAAGCGGGTCGCCTTTTAAGTACGTTTTGACCGCTTCGGAGTCACCTAGTGCAG | 8030 fluorescence intensity (a.u.)
3 | TAATACTACTATCTTCTGTTAGGCTTTCACATTTAACTATCGGAGTCACCTAGTGCAG | 10300 fluorescence intensity (a.u.)
4 | CTCCTACCGCCTCGTCTTCCACGAGTGCCACCGCGACCTCCGGAGTCACCTAGTGCAG | 8640 fluorescence intensity (a.u.)
5 | TATTTGATCTGTTCATGTTTTACTGCTTAGTTTGTGTAGACGGAGTCACCTAGTGCAG | 11700 fluorescence intensity (a.u.)
6 | TCTGTATTCATCATTTCCGCGATTCCACCCTCTCTCTCTCCGGAGTCACCTAGTGCAG | 8350 fluorescence intensity (a.u.)
7 | CCGGCCAACTTTTTTTTTCCAGTGAATTGCATGCATGTAACGGAGTCACCTAGTGCAG | 8100 fluorescence intensity (a.u.)
8 | GGAACCACCTCGACCTCTTCTTCTGGCTGCTCGCCGTGCTCGGAGTCACCTAGTGCAG | 9720 fluorescence intensity (a.u.)
9 | TTTGTTTGGTTTAAATAGTTGAGGTAATTTAGGGGTTTAGCGGAGTCACCTAGTGCAG | 9020 fluorescence intensity (a.u.)
10 | AAAGCCGATAGATATATGTATTACCTTTCCTTTGTTGCACCGGAGTCACCTAGTGCAG | 8820 fluorescence intensity (a.u.)
11 | TTGGCGAGCGAGCTGTGTGGTGGTGGTGGTGGGTGAGTGGCGGAGTCACCTAGTGCAG | 13600 fluorescence intensity (a.u.)
12 | CACCGCCACCTACTCGCCACTCTTTTACTCGGCGCGCCTTCGGAGTCACCTAGTGCAG | 13900 fluorescence intensity (a.u.)
13 | AGGCTCAAATCCTCCAGTACCCATCCACCTGACGGCTTTCCGGAGTCACCTAGTGCAG | 8270 fluorescence intensity (a.u.)
14 | TGCATGTGGAGTACTTTGTCCAGCTTTTCTAGCATGCCACCGGAGTCACCTAGTGCAG | 8320 fluorescence intensity (a.u.)
15 | AATGATCATCATTTCATGTGTACTCGTATTATGGCACCCACGGAGTCACCTAGTGCAG | 8700 fluorescence intensity (a.u.)
16 | GCACCTACAAGACCAACCTGCTCCAGCTCGCCAAAAACCTCGGAGTCACCTAGTGCAG | 9040 fluorescence intensity (a.u.)
17 | AAAAGCATCGTCCCATCGTCTTCACACATTTTACTACGAGCGGAGTCACCTAGTGCAG | 8970 fluorescence intensity (a.u.)
18 | GTAATTGGGCTTTCTTTGGGTAGTTATCGCTGGGCTTAATCGGAGTCACCTAGTGCAG | 9250 fluorescence intensity (a.u.)
19 | ATTATGTTAGGGTATTCATAGAGTTGTTTTTTTTTTTGATCGGAGTCACCTAGTGCAG | 12600 fluorescence intensity (a.u.)
20 | AAATTGTTGCATATTCTGTAGTCCTTTTTTTTAATGAGATCGGAGTCACCTAGTGCAG | 8210 fluorescence intensity (a.u.)
21 | ATTCTTGTTTTTCTTTTTTTTTTTATTGTCCAATTGGATTCGGAGTCACCTAGTGCAG | 10100 fluorescence intensity (a.u.)
22 | CTTGCTCGCTCGCGCGCCGTCTCTGCCGCGATCTCTCTCTCGGAGTCACCTAGTGCAG | 11400 fluorescence intensity (a.u.)
23 | CAAATGTTGTTCTTGCCATTTTCCTGTTTGAAGTTTTCCACGGAGTCACCTAGTGCAG | 12000 fluorescence intensity (a.u.)
24 | ACCAGTCACAGACCGGTCATTCTTGTCCACCACGCGTCAGCGGAGTCACCTAGTGCAG | 9340 fluorescence intensity (a.u.)
25 | TTTGTTGGTGTTATGTTGACTTTTTTTTGGGAACATTACTCGGAGTCACCTAGTGCAG | 17400 fluorescence intensity (a.u.)
26 | GTATAGTCCAATTCTCGTGCAGCTTCCACAAACCTCGCTTCGGAGTCACCTAGTGCAG | 11200 fluorescence intensity (a.u.)
27 | GTGGGATATATAACTCGTTGCCATGCACACTATACCCTTACGGAGTCACCTAGTGCAG | 8380 fluorescence intensity (a.u.)

Row | Sequence | binding signal
28 | GTTTTATGGCCATCGGTGTAGCTTGTATGCATATATCTTTCGGAGTCACCTAGTGCAG | 12900 fluorescence intensity (a.u.)
29 | GCCGCTCCCTGCCTCCGCGTGTCGTCGTCGCCCAGCTGCACGGAGTCACCTAGTGCAG | 9050 fluorescence intensity (a.u.)
30 | AGATTTGTGCTCTGACCCACTTCACTCACTTAGTCTCTAGCGGAGTCACCTAGTGCAG | 8680 fluorescence intensity (a.u.)
31 | TCTTGTCGCATTTGGAATAGTCGTCGTTGGTTTCTTGCCGCGGAGTCACCTAGTGCAG | 8820 fluorescence intensity (a.u.)
32 | TCTCGTGTTCCTCTTCACTACCACTTCTAGAAGCTTCCTCCGGAGTCACCTAGTGCAG | 8020 fluorescence intensity (a.u.)
33 | CCATGTCGGAGGTGGTGCGGATGCTGGAAGGGGAAGGACTCGGAGTCACCTAGTGCAG | 8630 fluorescence intensity (a.u.)
34 | GATTGACTTGCCAAACATTTTACATGCGTTTATTGTACCACGGAGTCACCTAGTGCAG | 9920 fluorescence intensity (a.u.)
35 | CACCCCAGCCGCCTTCGCTTTACACATGCAACTAACAAACCGGAGTCACCTAGTGCAG | 8060 fluorescence intensity (a.u.)
36 | GAAAAATGATCTGTCTCCTCTTTGCATTTTTGTGGTGATGCGGAGTCACCTAGTGCAG | 8680 fluorescence intensity (a.u.)
37 | CCTCGTTGTCGTTGTCGTCGTCTTCCTTTGACTCCCCTTACGGAGTCACCTAGTGCAG | 14600 fluorescence intensity (a.u.)
38 | CAGATTTCTGTGTCCCCGGTCCCGTCAAAATACCCCAGTACGGAGTCACCTAGTGCAG | 8390 fluorescence intensity (a.u.)
39 | GGTACGTCTCTCTCGCACTCTCGTGTCCTCTCGACAGGACCGGAGTCACCTAGTGCAG | 9140 fluorescence intensity (a.u.)
40 | CACATACATCCATCCATCCATCCTTTGATTTTTCATCTCCCGGAGTCACCTAGTGCAG | 9480 fluorescence intensity (a.u.)
41 | GAGCTACTATACCTTTTGATTACAGCAAACTTACCATTCCCGGAGTCACCTAGTGCAG | 8170 fluorescence intensity (a.u.)
42 | CCGCCGCCGCCGCCGCCGCCGCCGCAGTGACCACCTCGCTCGGAGTCACCTAGTGCAG | 8780 fluorescence intensity (a.u.)
43 | TTGTTATTGTTGGTGATGATGCTCATATGCTGTAGAGGGGCGGAGTCACCTAGTGCAG | 8240 fluorescence intensity (a.u.)
44 | GTGGTGTGTGTTTACATGTAAGATTAGACAGTTGCCAAGCCGGAGTCACCTAGTGCAG | 8710 fluorescence intensity (a.u.)
45 | CCAGCGTAACGTCCACTCATCGCGAGCCGCTCAATCCAAACGGAGTCACCTAGTGCAG | 9480 fluorescence intensity (a.u.)
46 | GTCGCTCACTTCTCGTTCAGGTTCAGCAATCGCAATCTCGCGGAGTCACCTAGTGCAG | 12100 fluorescence intensity (a.u.)
47 | TTAAAAAAAAGTCAACGATGATAAATATTTAGAGAGTGAGCGGAGTCACCTAGTGCAG | 13100 fluorescence intensity (a.u.)
48 | AAGGTTGTGTTCGTTTCTTTGAGGTTTCCAACCTCCACTACGGAGTCACCTAGTGCAG | 9190 fluorescence intensity (a.u.)
49 | CCCCAAATTCCAGTGGCACATAGCCGATATCGCAAATAGTCGGAGTCACCTAGTGCAG | 9170 fluorescence intensity (a.u.)
50 | ACTCTTGCCGACAACGTCTTCTCTTCCAGCTTCAATCCCACGGAGTCACCTAGTGCAG | 11300 fluorescence intensity (a.u.)
51 | GTACTAACTGGTTTCGTTCAATTTATTTTACATCTTATCACGGAGTCACCTAGTGCAG | 9000 fluorescence intensity (a.u.)
52 | GCTTATGTGCATGCGCACTATACTTTTGCTGGTTTTATCACGGAGTCACCTAGTGCAG | 11500 fluorescence intensity (a.u.)
53 | CACTGGTCAACAGGTTGATGACTGTTTGACCGGATTTTGTCGGAGTCACCTAGTGCAG | 11100 fluorescence intensity (a.u.)
54 | GAGGGAAAAAAATCTCTTGTATTTCACGTGCACATTTGTCCGGAGTCACCTAGTGCAG | 8670 fluorescence intensity (a.u.)

Copied from the entries so far (2 entries):
Row | Sequence | binding signal
43 | TTGTTATTGTTGGTGATGATGCTCATATGCTGTAGAGGGGCGGAGTCACCTAGTGCAG | 8240 fluorescence intensity (a.u.)
44 | GTGGTGTGTGTTTACATGTAAGATTAGACAGTTGCCAAGCCGGAGTCACCTAGTGCAG | 8710 fluorescence intensity (a.u.)
